{"sequences": {"note": "The chains behind the UniProt entries cited, without tags or fusion partners. Where a name states a change or a piece, a line headed by the entry shows the natural chain unless it says otherwise.", "UniProt P51450": "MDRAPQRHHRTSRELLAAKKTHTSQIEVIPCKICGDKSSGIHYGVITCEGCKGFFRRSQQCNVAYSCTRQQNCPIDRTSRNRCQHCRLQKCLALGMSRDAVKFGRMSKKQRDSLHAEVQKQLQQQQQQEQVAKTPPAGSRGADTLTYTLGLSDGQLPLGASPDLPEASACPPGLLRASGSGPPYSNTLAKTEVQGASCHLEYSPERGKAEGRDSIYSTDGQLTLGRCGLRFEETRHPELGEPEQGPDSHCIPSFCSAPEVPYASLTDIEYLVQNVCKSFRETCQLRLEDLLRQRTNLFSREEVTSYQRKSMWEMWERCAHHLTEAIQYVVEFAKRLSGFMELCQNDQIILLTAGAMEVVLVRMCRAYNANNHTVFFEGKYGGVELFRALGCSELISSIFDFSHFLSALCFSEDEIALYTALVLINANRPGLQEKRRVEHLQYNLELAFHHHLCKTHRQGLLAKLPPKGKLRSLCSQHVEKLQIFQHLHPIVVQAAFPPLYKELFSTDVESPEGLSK"}, "source": "PubChem BioAssay AID2551", "about": "(National Center for Advancing Translational Sciences (NCATS), 2010)", "note": "Out of some 310,000 compounds screened, about 17,000 (5.5%) were called active. Inconclusive means that the source gave no clear call. Such entries were picked first, then a sample of the others. Calls come from the whole dose curve; as a rule, active = well fitted inhibition curve with a large enough effect; inconclusive = small, poorly fitted or top-dose-only effect, or effect the other way; inactive = no such curve, though single readings can be large or run the other way. Where the call is inconclusive, the potency comes from a doubtful curve fit. % is set by controls: 0 for no effect and ±100 for the full control effect; potency is the fitted concentration of half-maximal effect."}
{"molecular_target": "Nuclear receptor ROR-gamma (Mus musculus) (UniProt P51450)", "test": "qHTS for inhibitors of ROR gamma transcriptional activity; note: nearly all actives have a fitted effect of over 60% in size", "conditions": "Drosophila S2 Gal4-RORgamma UAS-luciferase reporter, 20 h; activity change, negative = inhibition: at 53.6 µM (top of the series)", "method_in_brief": "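Stable Schneider cell line, Gal4 DNA-binding domain fused to ROR gamma, UAS-luciferase. Cmpd 1 hr RT → CuSO4 700 uM final → 20 hr RT → luciferase reagent 10 min → luminescence.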"}
{"molecule": "Cc1cc2ccccc2n1CCNC(=O)C(C)C", "Potency": "inconclusive: 0.141 µM [activator, full curve, poor fit]"}
{"molecule": "CC1=CC(C)(C)N(S(=O)(=O)c2ccc(C)cc2)c2cc(C)ccc21", "Potency": "inconclusive: 5.01 µM [inhibitor, single point]"}
{"molecule": "CC(Cc1cccnc1)NC(=O)c1cc(COc2ccc(F)cc2Cl)on1", "note": "(stereo not given)", "Potency": "inconclusive: 35.5 µM [activator, single point]"}
{"molecule": "NC(=O)CSc1nnc(-c2cccc(S(=O)(=O)N3CCOCC3)c2)n1C1CCCCCC1", "Potency": "inactive"}
{"molecule": "CC1CC(=S)Nc2ccccc2S1", "note": "(stereo not given)", "Potency": "inconclusive: 7.94 µM [inhibitor, partial curve, poor fit]"}
{"molecule": "Oc1ccc(/C=N/NC(=S)NCC2CCCO2)cc1", "note": "(stereo not given)", "Potency": "inconclusive: 25.1 µM [inhibitor, single point]"}
{"molecule": "Cc1ccc(S(=O)(=O)Nc2ccnc3ccccc23)cc1", "Potency": "inactive"}
{"molecule": "O=[N+]([O-])c1ccccc1Nc1nc(-c2cccnc2)cs1", "activity change, negative = inhibition": "inactive: 22.8% [at 1.91 µM]"}
{"molecule": "CC1Sc2ccc(S(=O)(=O)CCC(=O)N(C)Cc3ccco3)cc2NC1=O", "note": "(stereo not given)", "Potency": "inactive"}
{"molecule": "CC(=O)Oc1ccc(C2(C)CC(C)(C)NC(=S)N2C)c(OC(C)=O)c1", "note": "(stereo not given)", "Potency": "active: 12.6 µM"}
{"molecule": "O=C(/C=C/c1ccccc1)CC(=O)c1ccccc1O", "Potency": "inconclusive: 15.8 µM [inhibitor, single point]"}
{"molecule": "COc1cccc(/C=N/NC(=O)CNC(=O)COc2cccc(C)c2)c1O", "Potency": "active: 0.282 µM"}
{"molecule": "CC1(C)Cc2c(c(-c3ccco3)nc3sc4c(NCCN5CCOCC5)ncnc4c23)CO1", "Potency": "inconclusive: 15.8 µM [inhibitor, single point]"}
{"molecule": "CC1(C)CC2(C)Nc3ccccc3N2C(=S)N1", "note": "(stereo not given)", "Potency": "inconclusive: 15.8 µM [inhibitor, partial curve, poor fit]"}
{"molecule": "Cc1cccc(C(=O)N[C@H](C(=O)Nc2nccs2)C(C)C)c1", "Potency": "inactive"}
{"molecule": "CCc1nc(SCc2ccc(OCC(C)C)cc2)n[nH]1", "Potency": "inconclusive: 3.16 µM [activator, partial curve]"}
{"molecule": "CCNC(=S)N=Nc1c(O)[nH]c2ccc([N+](=O)[O-])cc12", "Potency": "active: 2 µM"}
{"molecule": "CC(C)Oc1ccc(/C=C(\\NC(=O)/C=C/c2ccco2)C(=O)NCCc2nc3ccccc3[nH]2)cc1", "Potency": "inconclusive: 17.8 µM [activator, single point]"}
{"molecule": "CCOc1ccccc1/C=N/NC(=O)c1cccc(Cl)c1", "Potency": "inconclusive: 22.4 µM [inhibitor, single point]"}
{"molecule": "O=C(Nc1ccc(-c2nnc3n2CCCCC3)cc1)c1cc2ccccc2o1", "Potency": "inconclusive: 7.08 µM [activator, partial curve, poor fit]"}
